# Laboratory results published in patent US20170335381.
# By UniProt entry, the sequences of proteins in these tests, tags left out.
# UniProt P19821, whole entry: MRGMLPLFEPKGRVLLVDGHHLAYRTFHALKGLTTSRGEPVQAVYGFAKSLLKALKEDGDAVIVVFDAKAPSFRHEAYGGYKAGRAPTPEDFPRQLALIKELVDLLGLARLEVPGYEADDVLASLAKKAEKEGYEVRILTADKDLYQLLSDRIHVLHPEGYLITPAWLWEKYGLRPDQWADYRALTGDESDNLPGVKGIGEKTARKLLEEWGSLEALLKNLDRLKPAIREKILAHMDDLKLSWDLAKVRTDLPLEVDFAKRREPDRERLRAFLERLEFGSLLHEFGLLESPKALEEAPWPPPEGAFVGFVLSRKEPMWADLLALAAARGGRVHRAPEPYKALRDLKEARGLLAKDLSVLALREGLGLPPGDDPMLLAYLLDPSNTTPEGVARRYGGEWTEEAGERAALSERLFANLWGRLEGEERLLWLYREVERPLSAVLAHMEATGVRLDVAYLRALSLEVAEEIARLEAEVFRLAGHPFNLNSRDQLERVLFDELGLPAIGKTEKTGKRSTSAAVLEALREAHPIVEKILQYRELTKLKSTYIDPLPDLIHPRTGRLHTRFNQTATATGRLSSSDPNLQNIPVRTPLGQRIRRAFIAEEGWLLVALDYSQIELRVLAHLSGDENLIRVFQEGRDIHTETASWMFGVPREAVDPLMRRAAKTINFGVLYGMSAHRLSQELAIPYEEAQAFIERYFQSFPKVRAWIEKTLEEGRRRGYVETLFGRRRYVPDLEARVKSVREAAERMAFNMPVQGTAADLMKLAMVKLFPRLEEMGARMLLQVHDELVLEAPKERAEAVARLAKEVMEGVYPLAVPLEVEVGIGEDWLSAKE
# UniProt O15527, whole entry: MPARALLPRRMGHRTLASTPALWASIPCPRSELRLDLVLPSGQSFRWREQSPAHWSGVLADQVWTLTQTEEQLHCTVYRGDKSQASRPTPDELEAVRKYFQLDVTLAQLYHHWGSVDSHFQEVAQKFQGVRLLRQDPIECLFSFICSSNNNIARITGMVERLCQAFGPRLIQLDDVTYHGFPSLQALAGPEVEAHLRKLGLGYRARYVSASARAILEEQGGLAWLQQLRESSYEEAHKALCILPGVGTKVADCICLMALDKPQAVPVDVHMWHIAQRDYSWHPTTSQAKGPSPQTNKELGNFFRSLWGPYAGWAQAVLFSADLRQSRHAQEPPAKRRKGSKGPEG
# UniProt P29372, whole entry: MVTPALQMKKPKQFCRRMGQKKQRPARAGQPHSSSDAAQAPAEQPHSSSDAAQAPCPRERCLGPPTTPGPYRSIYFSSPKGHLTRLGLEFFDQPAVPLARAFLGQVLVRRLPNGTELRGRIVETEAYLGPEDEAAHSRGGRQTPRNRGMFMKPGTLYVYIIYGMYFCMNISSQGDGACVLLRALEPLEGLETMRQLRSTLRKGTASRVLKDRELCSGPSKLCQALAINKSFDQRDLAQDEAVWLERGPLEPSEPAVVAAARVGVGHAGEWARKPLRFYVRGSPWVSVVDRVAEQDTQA
# No signal at the amounts used counts as a negative. For part of these data: Protein sequences can lack the tags named with them.
# Key:
# Taq DNA polymerase = Taq DNA polymerase (UniProt P19821); test: inhibition of the protein; details: purified recombinant protein
# BamHI = target: T1, BamHI (UniProt P23940); test: enzyme reaction in vitro; details: deoxyuracil in blocker at positions 5,6,11,12; Taq activity not restored; 5 U/mL, 37 C; purified recombinant protein; folded or branched DNA
# T1 sequence (looked up, limits assumed): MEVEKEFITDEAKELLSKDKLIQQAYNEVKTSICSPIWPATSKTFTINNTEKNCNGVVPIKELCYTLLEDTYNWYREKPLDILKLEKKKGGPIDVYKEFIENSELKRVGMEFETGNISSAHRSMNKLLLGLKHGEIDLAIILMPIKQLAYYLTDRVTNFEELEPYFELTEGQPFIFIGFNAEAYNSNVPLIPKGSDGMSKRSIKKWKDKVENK
# Exonuclease I (Exo I) = target: T2, Exonuclease I (Exo I) (UniProt P04995); test: enzyme reaction in vitro; details: deoxyuracil in blocker at positions 5,6,11,12; Taq activity not restored; 5 U/mL, 37 C; purified recombinant protein; folded or branched DNA
# T2 sequence (looked up, limits assumed): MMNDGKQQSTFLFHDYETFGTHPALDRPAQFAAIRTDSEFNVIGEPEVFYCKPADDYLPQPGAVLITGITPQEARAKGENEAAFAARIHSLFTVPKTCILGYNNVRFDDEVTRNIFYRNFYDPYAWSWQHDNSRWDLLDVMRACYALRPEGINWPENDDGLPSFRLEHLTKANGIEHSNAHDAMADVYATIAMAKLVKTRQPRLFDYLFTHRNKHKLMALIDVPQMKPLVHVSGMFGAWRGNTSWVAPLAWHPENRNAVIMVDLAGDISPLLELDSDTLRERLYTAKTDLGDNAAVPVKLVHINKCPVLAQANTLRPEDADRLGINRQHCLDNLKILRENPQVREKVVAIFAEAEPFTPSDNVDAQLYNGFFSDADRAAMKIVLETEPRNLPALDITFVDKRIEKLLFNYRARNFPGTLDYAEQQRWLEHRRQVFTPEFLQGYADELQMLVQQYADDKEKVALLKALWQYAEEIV
# Lambda exonuclease = target: T3, Lambda exonuclease (UniProt P03697); test: enzyme reaction in vitro; details: deoxyuracil in blocker at positions 5,6,11,12; Taq activity not restored; 5 U/mL, 37 C; purified recombinant protein; folded or branched DNA
# T3 sequence (looked up, limits assumed): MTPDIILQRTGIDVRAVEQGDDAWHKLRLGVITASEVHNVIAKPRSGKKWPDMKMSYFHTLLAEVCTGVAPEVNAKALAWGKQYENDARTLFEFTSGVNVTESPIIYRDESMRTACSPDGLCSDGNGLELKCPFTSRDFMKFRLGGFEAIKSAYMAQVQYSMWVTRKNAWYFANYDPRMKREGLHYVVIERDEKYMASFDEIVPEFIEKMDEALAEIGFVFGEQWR
# [1] = target: T4, formamidopyrimidine-DNA glycosylase (Fpg) (UniProt P05523); test: enzyme reaction in vitro; details: deoxyuracil in blocker at positions 5,6,11,12; Taq activity not restored; 5 U/mL, 37 C; purified recombinant protein; folded or branched DNA
# T4 sequence (looked up, limits assumed): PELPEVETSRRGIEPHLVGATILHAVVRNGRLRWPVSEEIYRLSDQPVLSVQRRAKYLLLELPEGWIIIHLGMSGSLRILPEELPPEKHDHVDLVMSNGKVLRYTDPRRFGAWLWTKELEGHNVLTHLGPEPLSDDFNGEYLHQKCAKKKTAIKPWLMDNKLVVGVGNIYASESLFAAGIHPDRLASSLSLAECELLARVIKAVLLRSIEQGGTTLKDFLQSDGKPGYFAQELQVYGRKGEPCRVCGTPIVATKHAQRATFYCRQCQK
# [2] = target: human 8-oxoguanine DNA glycosylase 1 (hOGG1) (Homo sapiens) (UniProt O15527); test: enzyme reaction in vitro; details: deoxyuracil in blocker at positions 5,6,11,12; Taq activity not restored; 5 U/mL, 37 C; purified recombinant protein; folded or branched DNA
# [3] = target: human alkyladenine DNA glycosylase (hAAG) (Homo sapiens) (UniProt P29372); test: enzyme reaction in vitro; details: deoxyuracil in blocker at positions 5,6,11,12; Taq activity not restored; 5 U/mL, 37 C; purified recombinant protein; folded or branched DNA
# [4] = target: T5, uracil DNA glycosylase (UDG) (UniProt P12295); test: enzyme reaction in vitro; details: purified recombinant protein, folded or branched DNA
# T5 sequence (looked up, limits assumed): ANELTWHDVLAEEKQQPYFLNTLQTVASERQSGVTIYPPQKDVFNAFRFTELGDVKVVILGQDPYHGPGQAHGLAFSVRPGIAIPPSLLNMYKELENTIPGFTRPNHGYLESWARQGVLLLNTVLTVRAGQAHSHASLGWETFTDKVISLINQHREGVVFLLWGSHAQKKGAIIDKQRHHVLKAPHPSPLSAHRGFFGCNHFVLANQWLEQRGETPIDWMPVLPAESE
# [5] = no inhibition without complementary target, 100 nM aptamer, 25 C, single-stranded DNA, variant of Original DNA aptamer (78-mer)
sequence,measurement,setting,value
ACTGACTGACTGACTGACTGCAATGTACAGTATTG / CAGTCAGTCAGTCAGTCAGT [Random2-aptamer / Random2-target complex],functional effect of the aptamer,"Taq DNA polymerase; inhibition similar to original 78-mer aptamer, 100 nM aptamer and target, 25 C, folded or branched DNA, variant of Random2-aptamer without target",active
CAATGTACAGTATTGTTTTTTTTTTTTTTTTTTTT / AAAAAAAAAAAAAAAAAAAA [T20-aptamer (Reverse) / A20-target complex],functional effect of the aptamer,"Taq DNA polymerase; inhibition similar to original 78-mer aptamer, 100 nM aptamer and target, 25 C, folded or branched DNA, variant of T20-aptamer (Reverse) without target",active
TAGGACGGTCACCAGTATTTTTAATCAATGTACAGTATTG / ATTAAAAATACTGGTGACCGTCCTA [Urea-specific aptamer 1 / complementary urea-target 1],functional effect of the aptamer,"Taq DNA polymerase; target dose-dependent inhibition, target detection limit 0.91 nM, 5.5 nM Taq, 200 nM aptamer, 25 C, folded or branched DNA, variant of Urea-specific aptamer 1 without target",active
AAATACTGGTGACCGTCCTACAATGTACAGTATTG / TAGGACGGTCACCAGTATTTTTAATGCTGATTACTTTTGC [Urea-specific aptamer 2 / urea-specific blocker],functional effect of the aptamer,"Taq DNA polymerase; blocker dose-dependent inhibition, also inhibited with non-complementary Chlamydia-target2, 200 nM aptamer, 20 nM blocker, folded or branched DNA",active
AAATACTGGTGACCGTCCTACAATGTACAGTATTG [Urea-specific aptamer 2 released from blocker],functional effect of the aptamer,"Taq DNA polymerase; activity restored when urea-target2 (SEQ 16) strips the blocker, target detection limit 2.67 nM, single-stranded DNA, variant of Original DNA aptamer (78-mer)",not active
TACAAGCTGCAATCCCTTTTAAGATCAATGTACAGTATTG / ATCTTAAAAGGGATTGCAGCTTGTA [Chlamydia-specific aptamer / complementary Chlamydia-target],functional effect of the aptamer,"Taq DNA polymerase; target dose-dependent inhibition, target detection limit 1.47 nM, 5.5 nM Taq, 200 nM aptamer, 25 C, folded or branched DNA",active
TAGGACGGTCACCAGTATTTTTAATCAATGTACAGTATTG / ATCTTAAAAGGGATTGCAGCTTGTA,functional effect of the aptamer,"Taq DNA polymerase; polymerase keeps inherent high activity, 200 nM aptamer, 100 nM non-complementary DNA, variant of Urea-specific aptamer 1 without target",not active
TTTTAATTTTAATTTTCAATGTACAGTATTG / AAAAUUAAAAUUAAAA [UDG aptamer / UDG blocker],activity on this sequence,BamHI,not active
same,activity on this sequence,Exonuclease I (Exo I),not active
same,activity on this sequence,Lambda exonuclease,not active
same,activity on this sequence,[1],not active
same,activity on this sequence,[2],not active
same,activity on this sequence,[3],not active
same,activity on this sequence,"[4]; deoxyuracil in blocker at positions 5,6,11,12, uracil excision read out by restored Taq activity, detection limit 0.024 U/mL, 37 C 30 min",active
same,functional effect of the aptamer,"Taq DNA polymerase; deoxyuracil in blocker at positions 5,6,11,12, inhibited in absence of UDG, 200 nM aptamer, 10 nM blocker, 5.5 nM Taq, folded or branched DNA",active
CAATGTACAGTATTGTTTTTTTTTTTTTTTTTTTT [T20-aptamer (Reverse) without target],functional effect of the aptamer,Taq DNA polymerase; [5],not active
TTTTTTTTTTTTTTTTTTTTCAATGTACAGTATTG [T20-aptamer without target],functional effect of the aptamer,Taq DNA polymerase; [5],not active
TTTTTTTTTTTTTTTTTTTTCAATGTACAGTATTG / AAAAAAAAAAAAAAAAAAAA [T20-aptamer / A20-target complex],functional effect of the aptamer,"Taq DNA polymerase; inhibition similar to original 78-mer aptamer, 100 nM aptamer and target, 25 C, folded or branched DNA, variant of T20-aptamer without target",active
ACTGACTGACTGACTGACTGCAATGTACAGTATTG [Random2-aptamer without target],functional effect of the aptamer,Taq DNA polymerase; [5],not active
TTTTAATTTTAATTTTCAATGTACAGTATTG / AAAATTAAAATTAAAA [UDG aptamer / control UDG blocker (T for U)],activity on this sequence,"[4]; thymine in place of uracil, 0.5 U/mL UDG, 37 C, variant of UDG aptamer / UDG blocker",not active
same,functional effect of the aptamer,"Taq DNA polymerase; inhibited regardless of presence of UDG, folded or branched DNA, variant of UDG aptamer / UDG blocker, dose not given here",active
TACAAGCTGCAATCCCTTTTAAGATCAATGTACAGTATTG [Chlamydia-specific aptamer without target],functional effect of the aptamer,"Taq DNA polymerase; high activity at zero target, 200 nM aptamer, 25 C, single-stranded DNA, variant of Original DNA aptamer (78-mer)",not active
TAGGACGGTCACCAGTATTTTTAATCAATGTACAGTATTG [Urea-specific aptamer 1 without target],functional effect of the aptamer,"Taq DNA polymerase; no inhibition without target, 200 nM aptamer, 25 C, single-stranded DNA, variant of Original DNA aptamer (78-mer)",not active
TTCTCGGTTGGTCTCTGGCGGAGCAAGACCAGACAATGTACAGTATTGGCCTGATCTTGTGTATGATTCGCTTTTCCC [Original DNA aptamer (78-mer)],functional effect of the aptamer,"Taq DNA polymerase; inhibits Taq primer extension, TaqMan readout, 5.5 nM Taq, 100 nM aptamer, 10 mM Tris pH 8.3, 50 mM KCl, 4 mM MgCl2, 25 C, single-stranded DNA",active
AGTCAGTCAGTCAGTCAGTCCAATGTACAGTATTG / GACTGACTGACTGACTGACT [Random1-aptamer / Random1-target complex],functional effect of the aptamer,"Taq DNA polymerase; inhibition similar to original 78-mer aptamer, 100 nM aptamer and target, 25 C, folded or branched DNA, variant of Random1-aptamer without target",active
AGTCAGTCAGTCAGTCAGTCCAATGTACAGTATTG [Random1-aptamer without target],functional effect of the aptamer,Taq DNA polymerase; [5],not active
TTTTAATTTTAATTTTCAATGTACAGTATTG [UDG aptamer freed after UDG cleavage of blocker],functional effect of the aptamer,"Taq DNA polymerase; activity restored after UDG cleavage of uracil in blocker, single-stranded DNA, variant of UDG aptamer / UDG blocker, dose not given here",not active
